Results: patent US12097241B2 (BRISTOL-MYERS SQUIBB COMPANY, priority 2017, dated 2024)

Experiment: general procedure: Fmoc solid-phase peptide synthesis; 2-chlorotrityl chloride resin (Chem-Impex, 100-200 mesh, 1.1 meq/g); HATU/DIPEA

For “(23S,28S)-tert-butyl 28-(((benzyloxy)carbonyl)amino)-23-(hydroxymethyl)-2,2-dimethyl-4,10,13,16,19,22,25-heptaoxo-3,6-dioxa-5,9,12,15,18,21,24-heptaazanonacosan-29-oate”, the step yield (coupling step) was 73%.

For “(5S,10S)-5-(tert-butoxycarbonyl)-10-(hydroxymethyl)-3,8,11,14-tetraoxo-1-phenyl-2-oxa-4,9,12,15-tetraazaheptadecan-17-oic acid”, the step yield (late stage modification step) was 96%.

For “(17S,22S)-1-(aminooxy)-22-carboxy-17-(hydroxymethyl)-4,7,10,13,16,19,24-heptaoxo-3,6,9,12,15,18,23-heptaazaoctatriacontan-38-oic acid”, the step yield (late stage modification step) was 95% yield, the “crude purity (method not given)” value (late stage modification step, HPLC with CAD detection) was 81% purity and the isolated mass (whole synthesis) was 88 mg. For the same substance, the “final purity (method not given)” value (whole synthesis, LC-CAD, scale of the general procedure 0.4 mmol) was 98.6% and the isolated yield (whole synthesis, scale of the general procedure 0.4 mmol) was 25.9%.

“(5S,10S)-methyl 5-(tert-butoxycarbonyl)-10-(hydroxymethyl)-3,8,11,14-tetraoxo-1-phenyl-2-oxa-4,9,12,15-tetraazaheptadecan-17-oate” gave a step yield (coupling step) of 93%.
